No constants are given. Whether binding was seen depends on the method and setting. Some entries that bind do so weakly or less than the wild type.
Columns and labels:
[1] = target: pathological hyperphosphorylated Tau filaments in human AD, PSP and PiD brain tissue (human) (UniProt P10636); assay: IHC on human AD, PSP and PiD brain sections
[2] = target: human Tau P301L in tissue of transgenic mice hemizygous for Tau P301L (Q-TauP301L) (human) (UniProt P10636); assay: IHC, tissue of Tau P301L transgenic mice (Table I)
[3] = target: pathological hyperphosphorylated Tau filaments in human AD, PSP and PiD brain tissue (human) (UniProt P10636); assay: IHC on human PSP and PiD brain sections, antibody at 25 nM
[4] = target: AD-associated Tau in brain extracts of patients with AD (human) (UniProt P10636); assay: immunoprecipitation, human AD brain extracts (Table I)
[5] = target: pathological hyperphosphorylated Tau filaments in human AD, PSP and PiD brain tissue (human) (UniProt P10636); assay: IHC on human AD brain sections, antibody at 25 nM
[6] = target: pathological hyperphosphorylated Tau filaments in human AD, PSP and PiD brain tissue (human) (UniProt P10636); assay: IHC on human AD brain sections, high magnification
[7] = target: endogenous Tau in human non-neurological control brain (human) (UniProt P10636); assay: immunoprecipitation from control brain extract, antibody at 10 µg/ml
[8] = target: endogenous Tau in human non-neurological control brain (human) (UniProt P10636); assay: immunoprecipitation from control brain homogenate, immunoblot with Tau 12
[9] = target: pathological hyperphosphorylated Tau filaments in human AD, PSP and PiD brain tissue (human) (UniProt P10636); assay: IHC, human AD brain tissue (Table I)
[10] = target: AD-associated Tau in brain extracts of patients with AD (human) (UniProt P10636); assay: immunoprecipitation from AD brain homogenate, immunoblot with Tau 12
[11] = target: AD-associated Tau in brain extracts of patients with AD (human) (UniProt P10636); assay: immunoprecipitation from AD brain extract, antibody at 10 µg/ml
[12] = target: pathological hyperphosphorylated Tau filaments in human AD, PSP and PiD brain tissue (human) (UniProt P10636); assay: IHC on human AD, PSP and PiD brain sections, antibody at 25 nM

Amino acid sequences for entries named in this document (tags omitted). A change or cut given only in a name is not applied to a line headed by its entry. Chains listed by the source or under a name are the forms on record and can include a tag or linker.
pathological hyperphosphorylated Tau filaments in human AD, PSP and PiD brain tissue (P10636, form named): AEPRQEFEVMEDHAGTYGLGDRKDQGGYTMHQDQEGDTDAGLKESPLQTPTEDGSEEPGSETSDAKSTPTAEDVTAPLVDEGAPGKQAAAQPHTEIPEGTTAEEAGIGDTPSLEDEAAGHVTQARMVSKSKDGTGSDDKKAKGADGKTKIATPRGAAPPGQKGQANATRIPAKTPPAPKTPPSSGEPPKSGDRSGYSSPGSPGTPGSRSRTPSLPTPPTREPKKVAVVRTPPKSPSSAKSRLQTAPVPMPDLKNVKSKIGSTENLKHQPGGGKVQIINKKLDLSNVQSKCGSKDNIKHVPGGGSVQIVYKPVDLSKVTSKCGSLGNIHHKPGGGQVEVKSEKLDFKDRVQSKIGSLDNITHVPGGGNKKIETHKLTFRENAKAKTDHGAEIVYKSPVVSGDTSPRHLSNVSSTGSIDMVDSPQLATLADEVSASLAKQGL
human Tau P301L in tissue of transgenic mice hemizygous for Tau P301L (Q-TauP301L) (P10636, form named): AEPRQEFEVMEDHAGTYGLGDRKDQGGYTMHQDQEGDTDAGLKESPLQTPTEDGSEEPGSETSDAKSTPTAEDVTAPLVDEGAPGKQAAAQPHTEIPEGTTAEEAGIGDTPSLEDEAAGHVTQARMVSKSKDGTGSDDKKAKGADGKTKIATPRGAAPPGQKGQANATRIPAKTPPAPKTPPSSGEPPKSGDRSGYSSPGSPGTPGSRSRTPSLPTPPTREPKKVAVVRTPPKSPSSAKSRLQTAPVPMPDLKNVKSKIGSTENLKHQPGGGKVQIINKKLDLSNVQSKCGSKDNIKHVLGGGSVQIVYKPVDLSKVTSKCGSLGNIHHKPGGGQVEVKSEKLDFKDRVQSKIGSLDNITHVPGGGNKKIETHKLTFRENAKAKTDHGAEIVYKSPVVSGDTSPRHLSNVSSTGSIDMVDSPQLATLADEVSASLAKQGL

Measured: binding

B1: NI-502.4P3 (antibody, V domains shown)
VH: EVQLVQSGAEVKKPGESLKISCKVSGYDFSKYWIGWVRQMPGKGLEWMGLIYPGDSDTRYSPSLEGQVSISADKSISAAYLQFSSLKASDSAMYYCVRKGYSAYLGGWFDPWGQGTLVTVSS
VL: DIQLTQSPDSLAASLGERVTINCRSSQNIFYNSNNKNFLAWYQQKAGQSPKLLIYWASTRESGVPDRFSGSGSGTDFTLTISGLQAGDVAVYFCQQYFTDAPTFGGGTKVEIK
binds: all assays above

B2: NI-502.8H1 (antibody, V domains shown)
VH: EVQLVESGGGLVQPGGSLRLSCAASGFTFSIYTMSWVRQAPGKGLEWVSAILSDGSTYYADSVEGRFTISRDNSKTTLYLQMNSLTAEDTAVYYCTKRVEGSFRGWGQGTLVTVSS
VL: EIVMTQSPGTLSLSPGESATLSCRASQSVSTTYLAWYQQKPGQAPRLLIYGASSRATGIPDRFSGSGSGTDFTLTISRLEPEDFAVYYCQQYGGSRLITFGQGTRLEIK
binds: [2]

From US20240101654A1
